Measurements from the supplement of paper PMC12067093, “Discovery and optimisation of a covalent ligand for TRIM25 and its application to targeted protein ubiquitination” (Chemical Science, 2025).
The list shows a part of the results.

The targets below were run with Cc1cc(ccc1-c1ccccc1)C(=O)N1CCCN(CC1)C(=O)CCl [compound 10] (assay: probe-labelled cysteine peptide fold change vs DMSO (competition) (log2 fold change); higher = less target engagement (more negative = stronger competition)). Conditions: 10 µM; THP-1; incubation time: 4 h.
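Note: competitive profiling in live THP-1 cells: cysteine peptides tagged with an iodoacetamide desthiobiotin (IA-DTB) probe, intensity after compound treatment relative to DMSO-treated cells.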

| Target | probe-labelled cysteine peptide fold change |
| --- | --- |
| GORASP2_Q9H8Y8_173_LYVYNTDTDNCR (UniProt Q9H8Y8) | -0.103 |
| GPD2_P43304_546_EYACTAVDMISR (UniProt P43304) | 0.0683 |
| GPD2_P43304_385_NYLSCDVEVR (UniProt P43304) | -0.0198 |
| GNL3_Q9BVP2_251_LLGGFQETCSK (UniProt Q9BVP2) | 0.0286 |
| GOPC_Q9HD26_76_MTSLSSCFAQLCHK (UniProt Q9HD26) | -0.184 |
| GMIP_Q9P107_895_LCEETPITSVPR (UniProt Q9P107) | -0.27 |
| GLA_P06280_94_DAGYEYLCIDDCWMAPQR (UniProt P06280) | -0.33 |
| GPS1_Q13098_175_GHDDLGDHYLDCGDLSNALK (UniProt Q13098) | 0.0315 |
| GOLPH3_Q9H4A6_84_DREGYTSFWNDCISSGLR (UniProt Q9H4A6) | 0.0608 |
| GNAI2_P04899-6_14_KIIHEDGYSEEECR (UniProt P04899) | -0.0805 |
| GNPNAT1_Q96EK6_113_FIHSCAK (UniProt Q96EK6) | 0.11 |
| GPHN_Q9NQX3_154_KGSQECFQFILPALPHAIDLLR (UniProt Q9NQX3) | -0.132 |
| GNB1L_Q9BYB4_206_IACHEEPVMDLDFDSQK (UniProt Q9BYB4) | -0.306 |
| GNAI3_P08754_66_IIHEDGYSEDECK (UniProt P08754) | 0.0891 |
| GNAQ_P50148_9_TLESIMACCLSEEAK (UniProt P50148) | -0.191 |
| GOLGA3_Q08378_391_DSICSSVSLESSAAETQEEMLQVLK (UniProt Q08378) | -0.235 |
| GLOD4_Q9HC38-2_41_VLRHEEFEEGCK (UniProt Q9HC38) | -0.835 |
| GNB4_Q9HAV0_25_ACNDATLVQITSNMDSVGR (UniProt Q9HAV0) | 0.165 |
| GPR108_Q9NPR9_104_DFQDCPLQK (UniProt Q9NPR9) | -0.24 |
| GNAI2_P04899_287_ITHSPLTICFPEYTGANK (UniProt P04899) | 0.0813 |
| GMPS_P49915_137_EDGVFNISVDNTCSLFR (UniProt P49915) | 0.0778 |
| GLG1_Q92896_118_LAEEESCREDVTR (UniProt Q92896) | -0.213 |
| GLO1_Q04760_19+20_AEPQPPSGGLTDEAALSCCSDADPSTK (UniProt Q04760) | -0.684 |

Same assay, conditions: 50 µM; THP-1; incubation time: 4 h

| Target | probe-labelled cysteine peptide fold change |
| --- | --- |
| GNA15_P30679_345_LFSHYTCATDTQNIR (UniProt P30679) | 0.0256 |
| GLCCI1_Q86VQ1_151_SPGSPVCR (UniProt Q86VQ1) | 0.295 |
| GNPTG_Q9UJJ9_157+169_LAHVSEPSTCVYALTFETPLVCHPHALLVYPTLPEALQR (UniProt Q9UJJ9) | -0.122 |
| GPD1L_Q8N335_9_VCIVGSGNWGSAVAK (UniProt Q8N335) | 0.112 |
| GPSM3_Q9Y4H4_116_ATFYTPQNPSSLAPAPLRPLEDREQLYSTILSHQCQR (UniProt Q9Y4H4) | -0.288 |
| GPD2_P43304_285_CVINATGPFTDSVR (UniProt P43304) | 0.169 |
| GOLGA3_Q08378_769_LGELQGEAASREDTICLLQNEK (UniProt Q08378) | -0.193 |
| GMFG_O60234_87+96_YVHDDGRVSYPLCFIFSSPVGCKPEQQMMYAGSK (UniProt O60234) | -0.824 |
| GOLGA3_Q08378_477_QSCWDLER (UniProt Q08378) | 0.441 |
| GLG1_Q92896_118_LAEEESCR (UniProt Q92896) | 0.124 |
| GOT1_P17174_46_TDDCHPWVLPVVK (UniProt P17174) | -0.062 |
| GNB1_P62873_271_ADQELMTYSHDNIICGITSVSFSK (UniProt P62873) | 0.00135 |
| GOSR1_O95249_34_LCTSYSHSSTR (UniProt O95249) | 0.0874 |
| GOLGA4_Q13439_1085_ILLFGCEK (UniProt Q13439) | 0.095 |
| GMIP_Q9P107_274_AQEAEALYQACVR (UniProt Q9P107) | 0.0797 |
| GORASP2_Q9H8Y8_173_LYVYNTDTDNCR (UniProt Q9H8Y8) | 0.167 |
| GPD2_P43304_546_EYACTAVDMISR (UniProt P43304) | 0.188 |
| GPD2_P43304_385_NYLSCDVEVR (UniProt P43304) | 0.0537 |
| GNL3_Q9BVP2_251_LLGGFQETCSK (UniProt Q9BVP2) | 0.0355 |

| Target | probe-labelled cysteine peptide fold change |
| --- | --- |
| GOPC_Q9HD26_76_MTSLSSCFAQLCHK (UniProt Q9HD26) | -0.0809 |
| GMIP_Q9P107_895_LCEETPITSVPR (UniProt Q9P107) | -0.341 |
| GLA_P06280_94_DAGYEYLCIDDCWMAPQR (UniProt P06280) | 0.124 |
| GPS1_Q13098_175_GHDDLGDHYLDCGDLSNALK (UniProt Q13098) | -0.0253 |
| GOLPH3_Q9H4A6_84_DREGYTSFWNDCISSGLR (UniProt Q9H4A6) | -0.0174 |
| GNAI2_P04899-6_14_KIIHEDGYSEEECR (UniProt P04899) | 0.0469 |
| GNPNAT1_Q96EK6_113_FIHSCAK (UniProt Q96EK6) | 0.018 |
| GPHN_Q9NQX3_154_KGSQECFQFILPALPHAIDLLR (UniProt Q9NQX3) | -0.149 |
| GNB1L_Q9BYB4_206_IACHEEPVMDLDFDSQK (UniProt Q9BYB4) | -0.28 |
| GNAI3_P08754_66_IIHEDGYSEDECK (UniProt P08754) | 0.144 |
| GNAQ_P50148_9_TLESIMACCLSEEAK (UniProt P50148) | -0.191 |
| GOLGA3_Q08378_391_DSICSSVSLESSAAETQEEMLQVLK (UniProt Q08378) | -0.0566 |
| GLOD4_Q9HC38-2_41_VLRHEEFEEGCK (UniProt Q9HC38) | -1.19 |
| GNB4_Q9HAV0_25_ACNDATLVQITSNMDSVGR (UniProt Q9HAV0) | 0.277 |
| GPR108_Q9NPR9_104_DFQDCPLQK (UniProt Q9NPR9) | -0.0357 |
| GNAI2_P04899_287_ITHSPLTICFPEYTGANK (UniProt P04899) | 0.0927 |
| GMPS_P49915_137_EDGVFNISVDNTCSLFR (UniProt P49915) | 0.487 |
| GLG1_Q92896_118_LAEEESCREDVTR (UniProt Q92896) | -0.117 |
| GLO1_Q04760_19+20_AEPQPPSGGLTDEAALSCCSDADPSTK (UniProt Q04760) | -0.738 |
